According to article PMC11066281:
No constants are given. Whether binding was seen depends on the method and setting. For some assays here: In cells and extracts the contact can be indirect. Some results given as binding are weak or reduced against the parent protein; the word gives no strength. Tags and fused reporters may be left off the sequences shown.

Protein sequences, listed by entry. Tags and fused reporters are not part of them.
UniProt Q94CL7: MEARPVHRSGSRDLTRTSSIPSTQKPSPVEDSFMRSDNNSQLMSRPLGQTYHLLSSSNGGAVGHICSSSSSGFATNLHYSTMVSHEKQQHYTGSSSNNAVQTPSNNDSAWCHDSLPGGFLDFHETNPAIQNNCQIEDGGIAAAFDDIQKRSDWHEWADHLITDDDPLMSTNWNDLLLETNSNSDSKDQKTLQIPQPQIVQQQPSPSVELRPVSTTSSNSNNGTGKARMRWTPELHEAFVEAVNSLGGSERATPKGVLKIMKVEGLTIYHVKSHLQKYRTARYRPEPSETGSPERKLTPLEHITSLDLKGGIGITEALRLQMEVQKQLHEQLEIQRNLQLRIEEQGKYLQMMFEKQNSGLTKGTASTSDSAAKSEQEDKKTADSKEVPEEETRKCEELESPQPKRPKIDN

Tests used:
[1] = target: PHOSPHATE RESPONSE 1 (PHR1) fused to the N-terminal half of luciferase (Arabidopsis thaliana) (UniProt Q94CL7); experiment: split reporter; luciferase complementation imaging (LCI): nLUC and cLUC fusions co-expressed in leaves of N. benthamiana under the 35S CaMV promoter
[2] = target: PHL4 fused to a half of luciferase (PHL4-cLUC or PHL4-nLUC) (Arabidopsis thaliana) (UniProt Q8GXC2); experiment: as above
[3] = target: T1, PHR1-like 1 (PHL1) fused to the C-terminal half of luciferase (Arabidopsis thaliana) (UniProt Q8GUN5); experiment: as above
T1 sequence: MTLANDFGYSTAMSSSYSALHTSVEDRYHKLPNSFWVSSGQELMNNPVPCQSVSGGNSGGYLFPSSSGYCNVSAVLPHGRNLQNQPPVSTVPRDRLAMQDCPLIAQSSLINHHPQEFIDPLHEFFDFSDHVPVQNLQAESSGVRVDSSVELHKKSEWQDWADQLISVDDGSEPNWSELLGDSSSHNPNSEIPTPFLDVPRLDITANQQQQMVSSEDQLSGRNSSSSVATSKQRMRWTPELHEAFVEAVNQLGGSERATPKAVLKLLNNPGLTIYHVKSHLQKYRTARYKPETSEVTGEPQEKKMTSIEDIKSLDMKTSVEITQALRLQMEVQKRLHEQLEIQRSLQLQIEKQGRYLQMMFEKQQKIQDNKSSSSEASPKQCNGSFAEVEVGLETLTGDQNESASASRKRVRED

[4] = target: T2, PHL1 fused to a half of YFP (BiFC construct) (Arabidopsis thaliana) (UniProt Q8GUN5); experiment: split reporter; bimolecular fluorescence complementation (BiFC): nYFP and cYFP fusions in leaves of N. benthamiana
T2 sequence: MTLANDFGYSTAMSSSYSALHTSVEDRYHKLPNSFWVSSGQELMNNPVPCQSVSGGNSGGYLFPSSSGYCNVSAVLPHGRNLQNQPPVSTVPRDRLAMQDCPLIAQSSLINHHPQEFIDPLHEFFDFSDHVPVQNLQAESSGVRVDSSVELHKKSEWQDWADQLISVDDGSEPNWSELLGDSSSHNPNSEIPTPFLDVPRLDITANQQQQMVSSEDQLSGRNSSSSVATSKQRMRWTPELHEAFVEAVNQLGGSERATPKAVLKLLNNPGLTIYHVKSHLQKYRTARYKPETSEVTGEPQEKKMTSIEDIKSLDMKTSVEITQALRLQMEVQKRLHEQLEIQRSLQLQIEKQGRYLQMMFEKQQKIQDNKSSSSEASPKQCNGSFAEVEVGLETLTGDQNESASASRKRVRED

[5] = target: PHL4 fused to a half of YFP (BiFC construct) (Arabidopsis thaliana) (UniProt Q8GXC2); experiment: as above
[6] = target: PHR1 fused to the DNA-binding domain of GAL4 (Arabidopsis thaliana) (UniProt Q94CL7); experiment: two-hybrid; Matchmaker GAL4 system, yeast strain AH109; pGBKT7 (BD) and pGADT7 (AD) fusions; selection on SD/-Trp/-Leu/-His and SD/-Trp/-Leu/-His/-Ade
[7] = target: T3, PHL1 fused to the DNA-binding domain of GAL4 (Arabidopsis thaliana) (UniProt Q8GUN5); experiment: as above
T3 sequence: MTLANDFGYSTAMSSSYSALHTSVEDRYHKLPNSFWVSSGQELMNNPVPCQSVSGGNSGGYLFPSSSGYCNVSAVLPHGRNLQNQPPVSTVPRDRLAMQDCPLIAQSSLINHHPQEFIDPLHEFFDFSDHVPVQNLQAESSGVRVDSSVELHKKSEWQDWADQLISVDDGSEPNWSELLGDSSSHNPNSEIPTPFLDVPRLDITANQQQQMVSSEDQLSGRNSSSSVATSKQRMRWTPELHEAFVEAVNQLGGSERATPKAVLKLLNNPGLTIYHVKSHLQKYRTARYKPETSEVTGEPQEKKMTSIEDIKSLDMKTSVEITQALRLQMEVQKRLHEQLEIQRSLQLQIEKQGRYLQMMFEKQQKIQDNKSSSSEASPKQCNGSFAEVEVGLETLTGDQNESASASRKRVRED

B1: PHR1-like 1 (PHL1) fused to the C-terminal half of luciferase (protein, UniProt Q8GUN5 1-413)
chain: MTLANDFGYSTAMSSSYSALHTSVEDRYHKLPNSFWVSSGQELMNNPVPCQSVSGGNSGGYLFPSSSGYCNVSAVLPHGRNLQNQPPVSTVPRDRLAMQDCPLIAQSSLINHHPQEFIDPLHEFFDFSDHVPVQNLQAESSGVRVDSSVELHKKSEWQDWADQLISVDDGSEPNWSELLGDSSSHNPNSEIPTPFLDVPRLDITANQQQQMVSSEDQLSGRNSSSSVATSKQRMRWTPELHEAFVEAVNQLGGSERATPKAVLKLLNNPGLTIYHVKSHLQKYRTARYKPETSEVTGEPQEKKMTSIEDIKSLDMKTSVEITQALRLQMEVQKRLHEQLEIQRSLQLQIEKQGRYLQMMFEKQQKIQDNKSSSSEASPKQCNGSFAEVEVGLETLTGDQNESASASRKRVRED
binding [1]: binds

B2: PHL4 fused to a half of luciferase (PHL4-cLUC or PHL4-nLUC) (protein, UniProt Q8GXC2 1-397)
chain: MIPNDDDDANSMKNYPLNDDDANSMKNYPLNDDDANSMENYPLRSIPTELSHTCSLIPPSLPNPSEAAADMSFNSELNQIMARPCDMLPANGGAVGHNPFLEPGFNCPETTDWIPSPLPHIYFPSGSPNLIMEDGVIDEIHKQSDLPLWYDDLITTDEDPLMSSILGDLLLDTNFNSASKVQQPSMQSQIQQPQAVLQQPSSCVELRPLDRTVSSNSNNNSNSNNAAAAAKGRMRWTPELHEVFVDAVNQLGGSNEATPKGVLKHMKVEGLTIFHVKSHLQKYRTAKYIPVPSEGSPEARLTPLEQITSDDTKRGIDITETLRIQMEHQKKLHEQLESLRTMQLRIEEQGKALLMMIEKQNMGFGGPEQGEKTSAKTPENGSEESESPRPKRPRNEE
binding [2]: binds | binding [1]: binds | binding [3]: binds

B3: PHL4 fused to a half of YFP (BiFC construct) (protein, UniProt Q8GXC2 1-397)
chain: MIPNDDDDANSMKNYPLNDDDANSMKNYPLNDDDANSMENYPLRSIPTELSHTCSLIPPSLPNPSEAAADMSFNSELNQIMARPCDMLPANGGAVGHNPFLEPGFNCPETTDWIPSPLPHIYFPSGSPNLIMEDGVIDEIHKQSDLPLWYDDLITTDEDPLMSSILGDLLLDTNFNSASKVQQPSMQSQIQQPQAVLQQPSSCVELRPLDRTVSSNSNNNSNSNNAAAAAKGRMRWTPELHEVFVDAVNQLGGSNEATPKGVLKHMKVEGLTIFHVKSHLQKYRTAKYIPVPSEGSPEARLTPLEQITSDDTKRGIDITETLRIQMEHQKKLHEQLESLRTMQLRIEEQGKALLMMIEKQNMGFGGPEQGEKTSAKTPENGSEESESPRPKRPRNEE
binding [4]: binds | binding [5]: binds

B4: PHL4 fused to the transcriptional activation domain of GAL4 (protein, UniProt Q8GXC2 1-397)
chain: MIPNDDDDANSMKNYPLNDDDANSMKNYPLNDDDANSMENYPLRSIPTELSHTCSLIPPSLPNPSEAAADMSFNSELNQIMARPCDMLPANGGAVGHNPFLEPGFNCPETTDWIPSPLPHIYFPSGSPNLIMEDGVIDEIHKQSDLPLWYDDLITTDEDPLMSSILGDLLLDTNFNSASKVQQPSMQSQIQQPQAVLQQPSSCVELRPLDRTVSSNSNNNSNSNNAAAAAKGRMRWTPELHEVFVDAVNQLGGSNEATPKGVLKHMKVEGLTIFHVKSHLQKYRTAKYIPVPSEGSPEARLTPLEQITSDDTKRGIDITETLRIQMEHQKKLHEQLESLRTMQLRIEEQGKALLMMIEKQNMGFGGPEQGEKTSAKTPENGSEESESPRPKRPRNEE
binding [6]: binds | binding [7]: binds
